Measured values: PubChem BioAssay AID1671190 (National Center for Advancing Translational Sciences (NCATS), 2021)
Hit rate of the full screen: of about 580,000 compounds, about 6,100 (1.1%) were called active. This list was built around the results that the source calls inconclusive (neither active nor inactive); the mix of calls is not that of the screen. Calls come from the whole dose curve; as a rule, active = well fitted inhibition curve with a large enough effect; inconclusive = small, poorly fitted or top-dose-only effect, or another doubt; inactive = no such curve, though single readings can be large or run the other way. Potencies beside an inconclusive call are fits to weak or partial responses and may not hold up.

Protein sequences, listed by entry. Tags and fused reporters are not part of them. Lines headed by an entry give the natural chain unless they say otherwise; changes in a name come on top.
UniProt P18054: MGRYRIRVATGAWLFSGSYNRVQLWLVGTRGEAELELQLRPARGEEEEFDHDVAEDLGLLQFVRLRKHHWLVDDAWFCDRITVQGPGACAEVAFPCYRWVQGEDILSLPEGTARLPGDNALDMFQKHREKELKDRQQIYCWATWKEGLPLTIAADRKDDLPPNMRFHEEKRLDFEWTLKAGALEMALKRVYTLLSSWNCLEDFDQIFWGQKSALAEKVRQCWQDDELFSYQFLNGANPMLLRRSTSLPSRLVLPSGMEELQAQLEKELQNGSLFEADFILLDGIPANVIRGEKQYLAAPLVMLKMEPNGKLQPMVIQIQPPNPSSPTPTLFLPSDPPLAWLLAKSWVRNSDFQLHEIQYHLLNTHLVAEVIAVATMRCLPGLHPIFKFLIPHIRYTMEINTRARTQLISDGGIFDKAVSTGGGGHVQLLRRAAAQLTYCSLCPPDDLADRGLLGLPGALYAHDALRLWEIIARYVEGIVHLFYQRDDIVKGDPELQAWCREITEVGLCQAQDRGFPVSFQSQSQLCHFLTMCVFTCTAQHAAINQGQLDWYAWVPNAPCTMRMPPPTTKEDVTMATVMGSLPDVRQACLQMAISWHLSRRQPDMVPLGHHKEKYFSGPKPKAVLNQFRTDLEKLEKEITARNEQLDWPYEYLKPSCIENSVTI

molecular target: Polyunsaturated fatty acid lipoxygenase ALOX12 (Homo sapiens) (UniProt P18054); test: Primary qHTS assay for inhibitors of human arachidonate 12S-lipoxygenase (ALOX12): Round 2; conditions: purified 12hLO, xylenol orange hydroperoxide absorbance; activity change, negative = inhibition: at 108 µM (top of the series) unless noted
Source text: Assay Provider: Theodore R. Holman Ph.D. University of California, Santa Cruz, California Human lipoxygenase 12hLO is a member of the closely related lipoxygenase family of enzymes which catalyze the site-specific oxidation of arachidonic acid to various hormone precursor molecules and as such is a candidate for drug development in a variety of disease areas, such as cancer and inflammation. Inhibition of 12hLO activity was screened by utilizing arachidonic acid as a substrate. The extent of hydroperoxide product formation was measured by a secondary chromogenic reaction in which xylenol orange (XO, Sigma-Aldrich, cat. number 39,818-7) reacts with the ferric ions produced from the reaction between the hydroperoxide and ferrous ions. The Fe (III)-XO complex is characterized with red-shifted absorbance at 560 nm. A purified preparation of human 12hLO was supplied by Dr. Holman laboratory, University of California, Santa Cruz.
PROTOCOL TABLE SEQUENCE No. (e.g., 1, 2, 3, etc.); […] (e.g., Cells, Incubation, Reagent, etc.); VALUE; DESCRIPTION 1; Enzyme; 3 uL; 150 nM 12hLO enzyme solution dispensed in 1536-well Greiner black, clear bottom plates. 2; Compound; 23 nL; compounds and controls were added. 3; Incubate; 15 min; room temperature. 4; Substrate; 1 uL; 40 uM arachidonic acid (final concentration). 5; Incubate; 30 min; room temperature. 6; Reagent; 4 uL; Fe-XO solution was added to each well. 7; Incubation; 30 min; room temperature 8; Detector; absorbance; Read 1 at 405 nm absorbance using ViewLux (Perkin-Elmer) CCD imager. 9; Detector; absorbance; Read 2 at 573 nm absorbance using ViewLux (Perkin-Elmer) CCD imager. NOTES (numbers refer to sequence above) 1; 150 nM 12hLO (final concentration) in buffer solution (25 mM Hepes, 0.01% Triton X-100, pH 7.0) was dispensed in columns 1, 2, 5-48. Column 1 is neutral (100% activity). Buffer only was dispensed in columns 3 and 4 as no enzyme negative controls. The plates were covered with metal lids with gas-exchange holes. 2; Compounds were pin transferred via a Kalypsys Pin Tool (Wako USA) in column 5-48. Control compound was transferred in column 2, titration of nordihydroguaiaretic acid (NDGA, Sigma-Aldrich, N5023) with top concentration of 20 mM in DMSO then 1:3 dilution in duplicate. Dilution factor of 23 nL into 4 uL final assay volume. 3; Covered assay plates were incubated for 15 min at room temperature. 4; Substrate was added to start the reaction; 40 uM arachidonic acid (Sigma-Aldrich, St. Louis, MO) was dispensed throughout the plate. 6; Chromogenic detection reagent solution (divalent iron/xylenol orange, Fe-XO) was added to each well: 200 uM xylenol orange, 300 uM ferrous ammonium sulfate prepared freshly in 50 mM sulfuric acid. 8, 9; Two absorbance readouts were obtained at 405 nm and at 573 nm using a ViewLux high-throughput CCD plate imager (Perkin-Elmer). The 573 to 405 (Read 2 / Read 1) absorbance ratio was used to compute reaction progress.
% is set by controls: 0 for no effect and ±100 for the full control effect; potency is the fitted concentration of half-maximal effect.

| Compound | Potency | activity change, negative = inhibition |
| --- | --- | --- |
| COc1ccc(-c2cc3ccccc3oc2=O)cc1NC(=O)c1ccc([N+](=O)[O-])o1 | inactive | – |
| CCOC(=O)C(=NC(C)C)NNc1cc(Cl)ccc1Cl | inconclusive: 44.7 µM [inhibitor, partial curve, poor fit] | – |
| COc1ccc(CN2C(=O)COC[C@H]2C(=O)Nc2ccc(OC)c(C(F)(F)F)c2)cc1 | inactive | – |
| COc1ccc2cc(CN(CC3CCCO3)S(=O)(=O)c3ccccc3)c(=O)[nH]c2c1 (stereo not given) | inconclusive: 50.1 µM [inhibitor, partial curve, poor fit] | – |
| O=C1/C(=C\c2cccnc2)SC(=S)N1C1CCS(=O)(=O)C1 (stereo not given) | inactive | – |
| COc1ccccc1-c1ccc2ncnc(NC3CC3)c2c1 | inconclusive: 20 µM [inhibitor, full curve, poor fit] | – |
| CON(C)S(=O)(=O)NC(=O)C1=C(N2CCCC2)COC1=O | inconclusive: 79.4 µM [inhibitor, partial curve, poor fit] | – |
| Cc1ccc(S(=O)(=O)CCC(=O)OCc2nnc(-c3ccccc3Br)o2)cc1 | inconclusive: 89.1 µM [inhibitor, single point] | – |
| Cc1ccc(-c2cc(C(=O)N3CCN(c4ccccc4O)CC3)c3ccccc3n2)o1 | inconclusive: 50.1 µM [inhibitor, partial curve, poor fit] | – |
| CCOc1ccccc1NC(=O)N1CCCC(c2nc3c(nnn3Cc3ccc(C)cc3)c(=O)[nH]2)C1 (stereo not given) | inactive | – |
| O=C(O)c1ccccc1SCc1cn2cc(Br)ccc2n1 | inactive | – |
| COc1ccc(S(=O)(=O)Nc2nc3ccccc3nc2Nc2ccc(Br)cc2)cc1 | inconclusive: 4.47 µM [inhibitor, full curve] | – |
| Cc1cn([C@H]2C[C@H](O)[C@@H](CNS(=O)(=O)N3CCCC3)O2)c(=O)[nH]c1=O | active: 7.94 µM | – |
| CCOCCCNC(=O)NC(CCC(C)C)c1c(-n2cccc2)sc2c1CCN(C)C2 (stereo not given) | inconclusive: 50.1 µM [inhibitor, partial curve, poor fit] | – |
| Cc1ccc(S(=O)(=O)NCCc2csc(-c3cccc(F)c3)n2)c(C)c1 | inconclusive: 31.6 µM [inhibitor, partial curve] | – |
| Cc1ccc(C)c(S(=O)(=O)N/N=C/c2ccc(N(C)C)cc2)c1 | inconclusive: 50.1 µM [inhibitor, partial curve, poor fit] | – |
| N=C1/C(=C\c2ccc(OC(=O)c3ccc(F)cc3)cc2)C(=O)N=C2SC(N3CCOCC3)=NN12 | inactive | – |
| CN1CCN(C(C(=O)O)c2c[nH]c3cc(OCc4ccccc4)ccc23)CC1 (stereo not given) | inconclusive: 39.8 µM [inhibitor, partial curve, poor fit] | – |
| CCCNC(=O)COc1ccccc1NC(C)=O | inconclusive: 4.47 µM [inhibitor, full curve, poor fit] | – |
| CCc1ccc2nc(-c3ccccc3C)cc(C(=O)O)c2c1 | inconclusive: 12.6 µM [inhibitor, partial curve, poor fit] | – |

| Compound | Potency | activity change, negative = inhibition |
| --- | --- | --- |
| CN(CC1CCCCC1)C(=O)CCc1c[nH]c2ccccc12 | inconclusive: 100 µM [inhibitor, single point] | – |
| COc1ccc(NC(=O)N2CC3(CCN(C(=O)c4c(C)noc4C)CC3)C2)cc1 | inconclusive: 25.1 µM [inhibitor, partial curve, poor fit] | – |
| O=c1c2sc3ccccc3c2n(Cc2cccc(C(F)(F)F)c2)c(=O)n1Cc1ccco1 | inconclusive: 100 µM [inhibitor, partial curve, poor fit] | – |
| CN(C)c1ccc(-c2ccnc(N[C@H]3CO[C@H]4[C@@H]3OC[C@H]4OC(=O)Nc3cccc(C#N)c3)n2)cc1 | inconclusive: 35.5 µM [inhibitor, partial curve] | – |
| COc1ccc(C(=O)N2CCC3(CC2)NC(=O)N(c2ccccc2)N3)cc1OC | inconclusive: 8.91 µM [inhibitor, full curve, poor fit] | – |
| CC(C)NC(=S)Nc1ccc2[nH]c(=O)[nH]c2c1 | inconclusive: 100 µM [inhibitor, partial curve, poor fit] | – |
| COC(=O)C[C@@H]1C[C@@H]2c3cc(NS(=O)(=O)c4ccc(F)cc4)ccc3O[C@@H]2[C@@H](CO)O1 | inconclusive: 39.8 µM [inhibitor, partial curve] | – |
| Cc1ccccc1-c1nc(-n2ccnc2)c2ccccc2n1 | inconclusive: 44.7 µM [inhibitor, partial curve, poor fit] | – |
| COCCNc1nc(Oc2cccc(NC(C)=O)c2)c2sccc2n1 | inactive | – |
| Cc1ccc(Cn2c(C(C)Nc3nc(-c4ccc(F)cc4)cs3)nc3cc(C(=O)NCCCO)ccc32)cc1 (stereo not given) | inconclusive: 39.8 µM [inhibitor, partial curve, poor fit] | – |
| COc1cc2c(cc1OC)C(C)N(S(=O)(=O)c1cn(C)c(C)n1)CC2 (stereo not given) | inconclusive: 112 µM [inhibitor, partial curve, poor fit] | – |
| Cc1ccc(S(=O)(=O)Nc2cccc(C(=O)NC3CCN(Cc4ccccc4)CC3)c2)cc1F | – | inconclusive: -43.4% [inhibitor] |
| COC(=O)[C@@]1(Sc2ccc(OC)cc2)CC(=O)N[C@@H]1c1ccc(OC(C)C)c(OC)c1 | inactive | – |
| CCCCCCN1C=C/C(=C\C=C(C#N)C#N)c2ccccc21 | inactive | – |
| COc1cccc(N2C(=O)N(CC(=O)NCc3cccc(OC)c3OC)c3ccccc3S2(=O)=O)c1 | inactive | – |
| Cc1[nH]c2ccc(C(=O)N(Cc3ccccc3F)C3CC3)cc2c1C | inconclusive: 70.8 µM [inhibitor, single point] | – |
| COc1cc(Nc2cc3c(cn2)cc(-c2cnn(C)c2)n3Cc2ccccc2)cc(OC)c1OC | inactive | – |
| Cc1ccc(C)c(N2CCN(C(=O)CCc3nc(-c4ccccc4C)no3)CC2)c1 | inconclusive: 39.8 µM [inhibitor, single point] | – |
| O=C(CCC(=O)Nc1ccc(Br)cc1)N/N=C/c1ccccc1F | inactive | – |
| Cc1cc(C)c(CNC(=O)c2nc(-c3cccc(O)c3)cc3[nH]ccc23)c(=O)[nH]1 | inconclusive: 31.6 µM [inhibitor, full curve] | – |
